PubChem BioAssay AID652272, Drosophila RNAi Screening Center, 2013
Purpose: 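Finding fly genes that regulate Hedgehog signal transduction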 (primary screen). Cell system: Drosophila clone 8 (Cl8) cells. Knock-down reagent: long dsRNA against Drosophila genes. Detection: 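Firefly light from a Hedgehog-responsive ptc promoter reporter and Renilla reference light, both read on a plate reader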. Direction: firefly Hh reporter signal: higher = more ptc reporter light; Renilla reference signal: higher = more Renilla control light. Call rule: 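Called a hit if the two-replicate mean z-score lies below -2 or above +3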. Calls: active = hit: reporter lowered or raised; inactive = not a hit.
In all, the deposit lists about 21,000 reagents; this is a random part of those that have a named target and a result. In the full data, 503 (2.4%) were called active. 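Raw plate light values, not normalised; calls rest on replicate z-scores that were not deposited; hits include reporter decreases as well as increases.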 The numbers tell different reagents against one gene apart. Not given: the amount of reagent, the time to read-out.

CG6873: firefly Hh reporter signal, replicate 1 = 56961; firefly Hh reporter signal, replicate 2 = 99416; Renilla reference signal, replicate 1 = 595; Renilla reference signal, replicate 2 = 5792; activity call = inactive
Nab2: firefly Hh reporter signal, replicate 1 = 92061; firefly Hh reporter signal, replicate 2 = 85163; Renilla reference signal, replicate 1 = 4349; Renilla reference signal, replicate 2 = 4000; activity call = inactive
CG33061: firefly Hh reporter signal, replicate 1 = 1.37e5; Renilla reference signal, replicate 1 = 1508; Renilla reference signal, replicate 2 = 3750; activity call = inactive
CG4806: firefly Hh reporter signal, replicate 1 = 69910; firefly Hh reporter signal, replicate 2 = 34935; Renilla reference signal, replicate 1 = 2098; Renilla reference signal, replicate 2 = 3942; activity call = inactive
Kyat: firefly Hh reporter signal, replicate 1 = 51002; firefly Hh reporter signal, replicate 2 = 1.02e5; Renilla reference signal, replicate 1 = 2016; Renilla reference signal, replicate 2 = 2632; activity call = inactive
Cad86C #1: firefly Hh reporter signal, replicate 1 = 1.32e5; firefly Hh reporter signal, replicate 2 = 2.14e5; Renilla reference signal, replicate 1 = 3993; Renilla reference signal, replicate 2 = 6120; activity call = inactive
Cad86C #2: firefly Hh reporter signal, replicate 1 = 44169; firefly Hh reporter signal, replicate 2 = 93596; Renilla reference signal, replicate 1 = 1722; Renilla reference signal, replicate 2 = 2784; activity call = inactive
Adgf-E: firefly Hh reporter signal, replicate 1 = 86469; firefly Hh reporter signal, replicate 2 = 42072; Renilla reference signal, replicate 1 = 2230; Renilla reference signal, replicate 2 = 3345; activity call = inactive
Lrp4: firefly Hh reporter signal, replicate 1 = 94886; firefly Hh reporter signal, replicate 2 = 56016; Renilla reference signal, replicate 1 = 2513; Renilla reference signal, replicate 2 = 1136; activity call = inactive
CG14770: firefly Hh reporter signal, replicate 1 = 71016; firefly Hh reporter signal, replicate 2 = 2.27e5; Renilla reference signal, replicate 1 = 1115; Renilla reference signal, replicate 2 = 8906; activity call = inactive
Kdm2: firefly Hh reporter signal, replicate 1 = 95701; firefly Hh reporter signal, replicate 2 = 1.18e5; Renilla reference signal, replicate 1 = 3610; Renilla reference signal, replicate 2 = 4464; activity call = inactive
CG1582: firefly Hh reporter signal, replicate 1 = 1.13e5; firefly Hh reporter signal, replicate 2 = 87345; Renilla reference signal, replicate 1 = 2746; Renilla reference signal, replicate 2 = 2096; activity call = inactive
Sys1: firefly Hh reporter signal, replicate 1 = 1.04e5; firefly Hh reporter signal, replicate 2 = 1.32e5; Renilla reference signal, replicate 1 = 3933; Renilla reference signal, replicate 2 = 3752; activity call = inactive
CG11241: firefly Hh reporter signal, replicate 1 = 1.52e5; firefly Hh reporter signal, replicate 2 = 6.22e5; firefly Hh reporter signal, replicate 3 = 1.14e5; Renilla reference signal, replicate 1 = 5752; Renilla reference signal, replicate 2 = 37351; activity call = inactive
CNT2: firefly Hh reporter signal, replicate 1 = 1.11e5; firefly Hh reporter signal, replicate 2 = 40790; Renilla reference signal, replicate 1 = 4477; Renilla reference signal, replicate 2 = 1850; activity call = inactive
halo: firefly Hh reporter signal, replicate 1 = 1.50e5; firefly Hh reporter signal, replicate 2 = 1.25e5; Renilla reference signal, replicate 1 = 3298; Renilla reference signal, replicate 2 = 2967; activity call = inactive
Rab9Fb: firefly Hh reporter signal, replicate 1 = 85111; firefly Hh reporter signal, replicate 2 = 2.89e5; Renilla reference signal, replicate 1 = 2736; Renilla reference signal, replicate 2 = 10640; activity call = inactive
GstE9: firefly Hh reporter signal, replicate 1 = 1.14e5; firefly Hh reporter signal, replicate 2 = 50212; Renilla reference signal, replicate 1 = 3189; Renilla reference signal, replicate 2 = 4160; activity call = inactive
CG8209: firefly Hh reporter signal, replicate 1 = 54103; firefly Hh reporter signal, replicate 2 = 91124; Renilla reference signal, replicate 1 = 5147; Renilla reference signal, replicate 2 = 6512; activity call = inactive
CG3663: firefly Hh reporter signal, replicate 1 = 1.32e5; firefly Hh reporter signal, replicate 2 = 92300; Renilla reference signal, replicate 1 = 5163; Renilla reference signal, replicate 2 = 3549; activity call = inactive
ppk19: firefly Hh reporter signal, replicate 1 = 78384; firefly Hh reporter signal, replicate 2 = 1.04e5; Renilla reference signal, replicate 1 = 3180; Renilla reference signal, replicate 2 = 2960; activity call = inactive

Laid out differently: 3 of the entries above
CG6873
- firefly Hh reporter signal, replicate 1: 56961
- firefly Hh reporter signal, replicate 2: 99416
- Renilla reference signal, replicate 1: 595
- Renilla reference signal, replicate 2: 5792
- activity call: inactive

Nab2
- firefly Hh reporter signal, replicate 1: 92061
- firefly Hh reporter signal, replicate 2: 85163
- Renilla reference signal, replicate 1: 4349
- Renilla reference signal, replicate 2: 4000
- activity call: inactive

CG33061
- firefly Hh reporter signal, replicate 1: 1.37e5
- Renilla reference signal, replicate 1: 1508
- Renilla reference signal, replicate 2: 3750
- activity call: inactive
